Test results published in the supplement of paper PMC12067093, “Discovery and optimisation of a covalent ligand for TRIM25 and its application to targeted protein ubiquitination” (Chemical Science, 2025).
The list shows a part of the results.

Chains of the proteins cited; added tags and fusions are not shown. Lines headed by an entry give the natural chain unless they say otherwise; changes in a name come on top.
UniProt O75529: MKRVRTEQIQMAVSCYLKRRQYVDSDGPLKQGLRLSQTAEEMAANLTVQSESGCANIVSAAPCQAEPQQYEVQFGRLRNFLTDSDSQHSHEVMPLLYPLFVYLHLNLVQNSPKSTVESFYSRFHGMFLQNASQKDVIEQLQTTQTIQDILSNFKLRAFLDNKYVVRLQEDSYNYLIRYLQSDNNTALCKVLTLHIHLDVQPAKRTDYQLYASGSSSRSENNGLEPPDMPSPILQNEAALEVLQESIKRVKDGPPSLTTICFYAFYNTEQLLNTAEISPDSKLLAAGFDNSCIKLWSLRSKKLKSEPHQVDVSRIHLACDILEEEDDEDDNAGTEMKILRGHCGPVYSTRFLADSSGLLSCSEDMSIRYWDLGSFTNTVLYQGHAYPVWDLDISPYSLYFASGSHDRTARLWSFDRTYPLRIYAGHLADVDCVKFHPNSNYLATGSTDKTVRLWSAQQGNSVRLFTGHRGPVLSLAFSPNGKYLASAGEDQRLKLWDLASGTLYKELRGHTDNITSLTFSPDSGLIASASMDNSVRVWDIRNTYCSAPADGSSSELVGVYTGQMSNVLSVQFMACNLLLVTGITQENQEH
UniProt O15056: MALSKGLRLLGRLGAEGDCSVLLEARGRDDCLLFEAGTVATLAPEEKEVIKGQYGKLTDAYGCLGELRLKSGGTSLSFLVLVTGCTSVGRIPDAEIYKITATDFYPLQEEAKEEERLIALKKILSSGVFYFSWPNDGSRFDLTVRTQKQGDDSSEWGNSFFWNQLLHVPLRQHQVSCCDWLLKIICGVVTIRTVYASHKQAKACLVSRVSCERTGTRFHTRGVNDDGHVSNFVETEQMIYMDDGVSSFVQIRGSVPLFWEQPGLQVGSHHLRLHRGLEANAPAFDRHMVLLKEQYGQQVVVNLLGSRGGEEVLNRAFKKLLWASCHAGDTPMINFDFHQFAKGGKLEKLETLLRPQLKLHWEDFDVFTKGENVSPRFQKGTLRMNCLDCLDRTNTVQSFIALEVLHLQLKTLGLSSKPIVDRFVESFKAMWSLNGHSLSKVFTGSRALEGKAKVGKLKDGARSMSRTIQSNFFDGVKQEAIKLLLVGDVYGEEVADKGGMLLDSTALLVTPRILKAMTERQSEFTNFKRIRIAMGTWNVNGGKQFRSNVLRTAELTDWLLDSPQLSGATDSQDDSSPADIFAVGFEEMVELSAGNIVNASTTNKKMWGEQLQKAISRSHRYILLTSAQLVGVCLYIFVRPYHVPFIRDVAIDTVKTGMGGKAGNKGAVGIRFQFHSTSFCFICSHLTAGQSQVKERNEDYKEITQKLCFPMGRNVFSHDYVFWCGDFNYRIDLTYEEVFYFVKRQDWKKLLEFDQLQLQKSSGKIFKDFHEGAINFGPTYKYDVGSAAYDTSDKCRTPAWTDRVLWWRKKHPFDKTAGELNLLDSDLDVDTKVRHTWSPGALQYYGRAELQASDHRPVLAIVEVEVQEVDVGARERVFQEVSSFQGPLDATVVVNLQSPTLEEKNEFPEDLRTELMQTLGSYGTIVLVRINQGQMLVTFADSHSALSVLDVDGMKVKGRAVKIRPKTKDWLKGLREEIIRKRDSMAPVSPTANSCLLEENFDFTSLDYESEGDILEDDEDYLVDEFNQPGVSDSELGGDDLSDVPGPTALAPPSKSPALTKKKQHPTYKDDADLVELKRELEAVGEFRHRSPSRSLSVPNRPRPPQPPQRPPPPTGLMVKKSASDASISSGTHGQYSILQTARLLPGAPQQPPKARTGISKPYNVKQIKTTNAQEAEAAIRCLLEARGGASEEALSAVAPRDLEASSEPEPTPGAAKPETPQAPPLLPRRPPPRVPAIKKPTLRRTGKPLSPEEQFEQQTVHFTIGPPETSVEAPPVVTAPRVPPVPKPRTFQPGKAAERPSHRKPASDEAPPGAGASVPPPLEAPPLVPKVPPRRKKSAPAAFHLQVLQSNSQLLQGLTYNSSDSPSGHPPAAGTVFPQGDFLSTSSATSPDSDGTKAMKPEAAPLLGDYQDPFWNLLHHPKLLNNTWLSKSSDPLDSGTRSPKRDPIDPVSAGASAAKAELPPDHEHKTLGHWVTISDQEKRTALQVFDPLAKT
UniProt Q9UL54: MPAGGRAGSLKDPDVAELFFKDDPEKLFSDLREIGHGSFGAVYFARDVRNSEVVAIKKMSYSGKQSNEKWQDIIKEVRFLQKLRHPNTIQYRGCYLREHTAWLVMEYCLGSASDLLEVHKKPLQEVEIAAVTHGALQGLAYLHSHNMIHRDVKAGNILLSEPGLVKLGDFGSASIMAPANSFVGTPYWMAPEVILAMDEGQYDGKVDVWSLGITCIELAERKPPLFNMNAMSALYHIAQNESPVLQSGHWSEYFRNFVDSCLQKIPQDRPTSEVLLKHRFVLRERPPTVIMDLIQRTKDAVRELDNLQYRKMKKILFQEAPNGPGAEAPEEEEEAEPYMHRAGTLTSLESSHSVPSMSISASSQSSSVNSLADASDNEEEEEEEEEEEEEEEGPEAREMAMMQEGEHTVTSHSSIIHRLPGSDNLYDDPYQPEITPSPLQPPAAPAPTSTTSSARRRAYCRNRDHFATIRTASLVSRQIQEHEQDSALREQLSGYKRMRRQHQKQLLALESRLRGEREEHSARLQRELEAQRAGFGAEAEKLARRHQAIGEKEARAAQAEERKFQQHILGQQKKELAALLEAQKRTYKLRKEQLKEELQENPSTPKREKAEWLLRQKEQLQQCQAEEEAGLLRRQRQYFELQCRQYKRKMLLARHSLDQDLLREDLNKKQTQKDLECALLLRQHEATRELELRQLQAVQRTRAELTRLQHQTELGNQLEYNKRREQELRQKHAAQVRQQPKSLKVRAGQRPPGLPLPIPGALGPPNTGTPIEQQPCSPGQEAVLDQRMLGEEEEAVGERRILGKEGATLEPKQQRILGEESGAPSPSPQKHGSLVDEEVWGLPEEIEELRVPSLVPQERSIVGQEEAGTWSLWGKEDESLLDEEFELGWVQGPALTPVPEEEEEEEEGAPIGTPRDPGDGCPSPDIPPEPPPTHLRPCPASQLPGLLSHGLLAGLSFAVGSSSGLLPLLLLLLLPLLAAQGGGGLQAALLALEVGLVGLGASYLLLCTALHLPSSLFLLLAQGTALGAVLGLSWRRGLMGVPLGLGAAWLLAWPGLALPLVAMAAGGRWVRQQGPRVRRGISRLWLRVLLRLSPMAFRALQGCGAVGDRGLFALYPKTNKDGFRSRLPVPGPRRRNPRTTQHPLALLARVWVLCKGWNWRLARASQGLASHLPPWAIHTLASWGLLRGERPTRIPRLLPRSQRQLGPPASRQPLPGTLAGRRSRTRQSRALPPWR
UniProt Q99426: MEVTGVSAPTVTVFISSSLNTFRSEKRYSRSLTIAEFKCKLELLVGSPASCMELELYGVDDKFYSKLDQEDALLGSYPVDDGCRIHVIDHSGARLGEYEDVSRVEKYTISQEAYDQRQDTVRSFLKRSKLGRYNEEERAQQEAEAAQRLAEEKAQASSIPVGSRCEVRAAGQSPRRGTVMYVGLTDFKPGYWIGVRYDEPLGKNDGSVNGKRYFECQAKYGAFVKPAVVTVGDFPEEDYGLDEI
UniProt Q86TM6, whole entry, looked up: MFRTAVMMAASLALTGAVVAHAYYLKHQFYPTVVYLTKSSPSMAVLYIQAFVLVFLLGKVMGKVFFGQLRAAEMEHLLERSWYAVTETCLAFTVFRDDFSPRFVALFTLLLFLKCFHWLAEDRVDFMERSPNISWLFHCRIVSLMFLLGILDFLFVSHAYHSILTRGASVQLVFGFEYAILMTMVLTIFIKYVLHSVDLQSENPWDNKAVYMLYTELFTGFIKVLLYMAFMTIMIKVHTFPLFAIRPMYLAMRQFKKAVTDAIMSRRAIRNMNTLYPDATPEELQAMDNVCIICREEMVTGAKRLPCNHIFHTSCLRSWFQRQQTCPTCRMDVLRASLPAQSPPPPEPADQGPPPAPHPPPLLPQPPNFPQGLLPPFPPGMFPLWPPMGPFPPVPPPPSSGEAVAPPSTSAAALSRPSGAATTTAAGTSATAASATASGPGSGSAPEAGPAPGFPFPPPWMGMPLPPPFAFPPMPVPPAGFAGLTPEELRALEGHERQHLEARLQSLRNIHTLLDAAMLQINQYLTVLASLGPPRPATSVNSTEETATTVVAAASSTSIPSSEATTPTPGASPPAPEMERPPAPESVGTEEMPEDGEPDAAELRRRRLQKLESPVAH
UniProt Q16514: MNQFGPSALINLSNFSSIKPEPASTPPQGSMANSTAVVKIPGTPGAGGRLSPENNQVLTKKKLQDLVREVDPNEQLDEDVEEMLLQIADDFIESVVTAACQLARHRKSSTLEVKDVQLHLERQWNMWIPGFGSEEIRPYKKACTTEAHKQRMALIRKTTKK
UniProt Q92609: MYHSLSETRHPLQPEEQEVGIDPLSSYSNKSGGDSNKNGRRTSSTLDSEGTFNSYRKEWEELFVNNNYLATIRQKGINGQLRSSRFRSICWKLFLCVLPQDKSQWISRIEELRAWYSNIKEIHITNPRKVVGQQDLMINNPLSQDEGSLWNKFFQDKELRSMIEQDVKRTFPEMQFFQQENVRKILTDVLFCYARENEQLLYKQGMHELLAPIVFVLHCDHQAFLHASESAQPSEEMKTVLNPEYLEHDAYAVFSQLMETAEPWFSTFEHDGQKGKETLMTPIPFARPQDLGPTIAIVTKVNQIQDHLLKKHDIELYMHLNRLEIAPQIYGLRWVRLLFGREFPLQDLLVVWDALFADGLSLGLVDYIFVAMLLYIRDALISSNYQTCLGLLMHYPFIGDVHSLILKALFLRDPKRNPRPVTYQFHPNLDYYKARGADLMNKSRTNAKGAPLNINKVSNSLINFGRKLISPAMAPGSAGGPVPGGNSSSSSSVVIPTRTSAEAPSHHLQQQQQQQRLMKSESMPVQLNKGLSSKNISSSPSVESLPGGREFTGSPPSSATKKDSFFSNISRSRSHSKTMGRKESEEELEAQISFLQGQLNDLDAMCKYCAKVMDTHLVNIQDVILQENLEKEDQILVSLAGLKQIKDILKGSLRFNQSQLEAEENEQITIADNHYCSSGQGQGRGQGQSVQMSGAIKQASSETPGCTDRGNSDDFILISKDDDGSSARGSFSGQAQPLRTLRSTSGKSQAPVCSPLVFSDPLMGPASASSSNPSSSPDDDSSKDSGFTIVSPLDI
UniProt P26639: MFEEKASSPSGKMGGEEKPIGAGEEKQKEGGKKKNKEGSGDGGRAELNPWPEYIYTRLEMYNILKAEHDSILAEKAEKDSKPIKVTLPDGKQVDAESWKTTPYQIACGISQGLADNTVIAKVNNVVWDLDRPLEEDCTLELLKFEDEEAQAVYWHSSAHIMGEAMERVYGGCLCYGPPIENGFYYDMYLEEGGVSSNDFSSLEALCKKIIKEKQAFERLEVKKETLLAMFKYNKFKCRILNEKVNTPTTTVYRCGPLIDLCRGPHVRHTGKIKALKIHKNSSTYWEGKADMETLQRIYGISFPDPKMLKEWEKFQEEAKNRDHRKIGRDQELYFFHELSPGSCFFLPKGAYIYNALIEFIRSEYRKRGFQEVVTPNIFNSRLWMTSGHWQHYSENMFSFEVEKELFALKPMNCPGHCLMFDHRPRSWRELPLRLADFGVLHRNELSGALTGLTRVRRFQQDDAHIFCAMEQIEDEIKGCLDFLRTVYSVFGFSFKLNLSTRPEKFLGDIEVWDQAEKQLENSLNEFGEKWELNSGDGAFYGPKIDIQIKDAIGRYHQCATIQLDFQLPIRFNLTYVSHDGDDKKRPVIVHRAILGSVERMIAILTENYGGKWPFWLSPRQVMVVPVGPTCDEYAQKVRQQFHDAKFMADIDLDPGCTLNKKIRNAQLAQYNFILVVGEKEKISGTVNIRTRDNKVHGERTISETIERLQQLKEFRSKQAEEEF
UniProt Q9NVG8: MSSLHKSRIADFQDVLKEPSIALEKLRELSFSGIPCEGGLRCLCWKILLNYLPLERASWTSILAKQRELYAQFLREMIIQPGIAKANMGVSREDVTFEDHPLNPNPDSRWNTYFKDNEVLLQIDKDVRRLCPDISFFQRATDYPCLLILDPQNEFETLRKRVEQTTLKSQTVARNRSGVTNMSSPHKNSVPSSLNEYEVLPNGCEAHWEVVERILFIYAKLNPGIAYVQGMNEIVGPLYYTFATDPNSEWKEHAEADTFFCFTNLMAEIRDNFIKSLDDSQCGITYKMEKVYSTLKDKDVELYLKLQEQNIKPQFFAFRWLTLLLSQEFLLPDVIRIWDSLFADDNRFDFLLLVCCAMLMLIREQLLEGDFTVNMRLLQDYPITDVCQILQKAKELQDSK

Compound: CC1Cc2ccccc2N1C(=O)C1CCCN(C1)C(=O)CCl (mixture of isomers) [TRIM25 ligand 11 (diastereomer mixture)]
Test: probe-labelled cysteine peptide fold change vs DMSO (competition) (log2 fold change); higher = less target engagement (more negative = stronger competition)
Settings: THP-1, incubation time: 4 h
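Also: competitive chemoproteomic profiling in live THP-1 cells with an iodoacetamide desthiobiotin (IA-DTB) probe, comparing probe-labelled peptide intensities in compound-treated cells against DMSO-treated controls.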

Target	probe-labelled cysteine peptide fold change (10 µM)	probe-labelled cysteine peptide fold change (50 µM)
TAF5L_O75529_431_IYAGHLADVDCVK (UniProt O75529)	0.0455	0.105
SYNJ2_O15056_63_LTDAYGCLGELR (UniProt O15056)	-0.0112	0.0612
TAOK2_Q9UL54_643_QYFELQCR (UniProt Q9UL54)	0.172	0.167
SYNRG_Q9UMZ2_625_NPLNLADLDMFSSVNCSSEK (UniProt Q9UMZ2)	-0.0694	-0.221
TBCB_Q99426_51_LELLVGSPASCMELELYGVDDK (UniProt Q99426)	0.169	0.0105
SYVN1_Q86TM6_307_RLPCNHIFHTSCLR (UniProt Q86TM6)	0.151	-0.269
TBL2_Q9Y4P3_335_FEEAAGAAPCR (UniProt Q9Y4P3)	0.107	-0.0485
TAF12_Q16514_143_ACTTEAHK (UniProt Q16514)	-0.0884	-0.0938
TBC1D5_Q92609_706_QASSETPGCTDR (UniProt Q92609)	-0.0244	-0.083
TARS_P26639_413_ELFALKPMNCPGHCLMFDHRPR (UniProt P26639)	-0.0216	-0.0677
TBC1D13_Q9NVG8_204_NSVPSSLNEYEVLPNGCEAHWEVVER (UniProt Q9NVG8)	0.164	-0.0677
TBC1D9B_Q66K14_1079_DCATEEDEPPAPELHQDAAR (UniProt Q66K14)	-0.0167	0.107
SWAP70_Q9UH65_40_VLSHNLCTVLK (UniProt Q9UH65)	0.0184	0.0423
TARS_P26639_343_DQELYFFHELSPGSCFFLPK (UniProt P26639)	-0.0332	0.00388

An excerpt of these results, field by field:
TAF12_Q16514_143_ACTTEAHK (UniProt Q16514)
  probe-labelled cysteine peptide fold change (10 µM) = -0.0884; probe-labelled cysteine peptide fold change (50 µM) = -0.0938
TBC1D5_Q92609_706_QASSETPGCTDR (UniProt Q92609)
  probe-labelled cysteine peptide fold change (10 µM) = -0.0244; probe-labelled cysteine peptide fold change (50 µM) = -0.083
